For part of these data: At least one compound was matched to its structure with a doubt left. Some entries share one result that the patent states for a list of compounds.
Assays:
[1] = system: gold-labelled mouse anti-methamphetamine antibody; experiment: Lateral flow immunochromatography test for methamphetamine/ecstasy in spiked oral fluid; settings: compound at 10,000 ng/ml in spiked saliva; cut off set at ≧15 ng/ml (+)-methamphetamine
[2] = system: monoclonal anti-methamphetamine antibody; experiment: Competitive inhibition ELISA (CELIA) on BSA-pseudoephedrine coated wells; format: binding, mouse; settings: compound at 10,000 ng/ml
Procedure: The conjugate was evaluated using ELISA. 96-well microtitre plates (Costar) were coated with BSA-pseudoephedrine (5 :g/ml in 0.05 M sodium carbonate/bicarbonate buffer, pH 9.6, 100 :l/well) overnight at room temperature. […] Two fold dilutions of monoclonal anti-methamphetamine antibody (East coast Biological, USA) in wash buffer containing 10 mg/ml BSA (assay buffer) were added to the wells (100 :l/well) and the plate incubated at room temperature for 30 minutes. The wells were washed 3 times with wash buffer and horseradish peroxidase-labelled goat anti-mouse IgG antibody (product number A-4416, Sigma Co., Poole, England) was added to the wells (1/2000 dilution in assay buffer, 100 :l/well) and incubation continued for a further 30 minutes. […] After 30 minutes incubation, colour development was stopped by the addition of 1 M sulphuric acid (100 :l/well). Colour intensity was measured at 450 nm.
Competitive ELISA was then set up to evaluate the cross-reactivity of various drugs with methamphetamine. […] The designer ecstasy drugs MDMA and MBDB were well detected by this assay.

Row | Structure (SMILES) | Lateral flow test result [1] | % Cross-reactivity [2] [%]
1 | CNC(=C[N+](=O)[O-])NCCSCc1ccc(CN(C)C)o1 [Ranitidine] | negative | 
2 | CC(N)C(O)c1ccccc1 (stereo not drawn) [phenylpropanolamine] |  | < 0.1
3 | NCCc1ccc(O)cc1 [tyramine, 4-hydroxy-phenethylamine] |  | < 0.1

Reference: patent US7888040B2, “Detection of methamphetamine group drugs” (priority 2004, dated 2011)
